Library screening results

Chains of the proteins cited; added tags and fusions are not shown.
UniProt E9BF75, entry or part of it: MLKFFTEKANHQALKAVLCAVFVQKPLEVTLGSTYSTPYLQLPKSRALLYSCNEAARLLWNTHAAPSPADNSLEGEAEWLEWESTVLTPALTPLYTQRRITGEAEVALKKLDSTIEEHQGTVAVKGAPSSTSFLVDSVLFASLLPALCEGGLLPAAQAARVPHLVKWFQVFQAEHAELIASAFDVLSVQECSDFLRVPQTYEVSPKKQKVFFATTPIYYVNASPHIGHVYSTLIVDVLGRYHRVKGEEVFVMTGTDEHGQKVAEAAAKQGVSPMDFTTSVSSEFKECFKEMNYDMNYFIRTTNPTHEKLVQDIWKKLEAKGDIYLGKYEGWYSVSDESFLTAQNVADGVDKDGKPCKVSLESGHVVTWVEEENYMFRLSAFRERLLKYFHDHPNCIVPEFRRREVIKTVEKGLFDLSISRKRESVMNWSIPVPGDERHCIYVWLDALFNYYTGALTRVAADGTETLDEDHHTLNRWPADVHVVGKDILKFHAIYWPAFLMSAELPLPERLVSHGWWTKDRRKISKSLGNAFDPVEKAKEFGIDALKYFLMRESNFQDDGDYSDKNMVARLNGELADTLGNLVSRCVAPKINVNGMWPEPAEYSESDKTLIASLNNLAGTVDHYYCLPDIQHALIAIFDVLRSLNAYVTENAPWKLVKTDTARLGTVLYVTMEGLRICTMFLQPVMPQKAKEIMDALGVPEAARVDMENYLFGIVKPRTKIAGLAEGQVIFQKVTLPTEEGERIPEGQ

Data taken from ChEMBL document CHEMBL3988442, “University of Dundee, Small-Polar-MMV Screening Library” (2021).

Results are percentages, as filed. The record does not define 0% and 100%; most values in the screen are far below 50% and negative numbers occur (in some assays of this library far below -100). Compounds were drawn at random from those tested, without regard to their results.

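Methionyl-tRNA synthetase (putative), Leishmania donovani (UniProt E9BF75). Primary screen of methionyl-tRNA synthetase; the read-out is not stated. The test concentration is not given. Values are per cent inhibition. Of about 68,000 compounds tested this way, about 24 (0.035%) reached 50% or more in at least one test.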

compound,inhibition
NC(=O)CSc1ccccc1NC(=O)C1CCCCC1,4.294%
CCn1c(C2CCCNC2)nn(CCn2cncn2)c1=O (configuration not stated),19.05%
CCN(Cc1ccc2c(c1)OCO2)S(=O)(=O)N(C)C(C)C,9.091%
Cc1nonc1CNC(=O)C(C)Oc1cccc(F)c1 (configuration not stated),13.37%
Cc1ccc(C2(O)CCN(C(=O)Cn3cc(C)c(=O)[nH]c3=O)CC2)nc1,18.41%
CCCc1noc(CCC(=O)N2CCCC2c2cccs2)n1 (configuration not stated),16.06%
CCCc1noc(CCCC(=O)N2CCCC(n3ccnc3C)C2)n1 (configuration not stated),8.791%
CN1C[C@H]2CN(Cc3cccc(OC(F)(F)F)c3)CCN2C1=O,2.256%
CN1CCCN(c2cnn(Cc3ccc(C(C)(C)C)cc3)c(=O)c2)CC1,24.4%
CC(C)[C@H](Nc1cc(-c2ccncc2)nc2ccnn12)C(N)=O,6.863%
CCc1nnc(CN2CCc3[nH]c(-c4ccc(OC)cc4)nc3C2)o1,6.164%
O=C(NC1CCS(=O)(=O)C1)c1ccc(-c2ccc(F)cc2)s1 (configuration not stated),11.61%
CCN(Cc1ccoc1)C(=O)Nc1ccccc1CN1CCOCC1,13.94%
O=S1(=O)NC2(CCCN(Cc3ccc(F)cc3)C2)COc2ccccc21 (configuration not stated),12.57%
CCN(CC)C(CNC(=O)c1ccc(S(C)(=O)=O)cc1)c1ccco1 (configuration not stated),9.524%
CN1CCN(Cc2nc3ccccc3[nH]2)[C@H]2CS(=O)(=O)C[C@H]21,11.52%
O=C(Nc1cccc(CNCc2csc(Br)c2)c1)C1CC1,13.39%
Cc1nc(CNCC2CCCN(C(=O)OC(C)(C)C)C2)cs1 (configuration not stated),6.803%
Cc1nc(CNC(=O)N(C)Cc2cnn(C)c2)cs1,5.397%
CC(C)c1noc(-c2ccc(-n3cnc(C(=O)O)c3)nc2)n1,15.55%
O=C(c1cnc(-c2ccco2)s1)N1CCCCC1Cn1cccn1 (configuration not stated),-6.838%
Cc1ccc(F)c(OC2(C(=O)O)CCN(C(=O)N3CCCC3)CC2)c1,9.735%
COC(=O)C(NC(=O)c1ccc(NC2CC2)nc1)c1ccccc1 (configuration not stated),12.09%
CC(C)Cn1cc(NC(=O)NC(C)(C)c2nccs2)cn1,9.89%
COC(C(=O)N1CCN(c2cccc(Cl)c2)C(=O)C1)c1ccccc1 (configuration not stated),14.13%
c1cnc2c(CN3CCCCC3c3ccncn3)cnn2c1 (configuration not stated),19.37%
CCCN1CCC[C@]2(CCC(=O)N2Cc2ccncc2)[C@H]1CC,16.25%
CC(C)c1nnc2n1CCN(C(=O)c1cc(Cl)c[nH]1)C2,24.74%
COCCNC(=O)C1CCCN1S(=O)(=O)c1sc(=O)[nH]c1C (configuration not stated),16.62%
CCn1cc2c(n1)CN(CC1CC1)CC2COCC1CC1 (configuration not stated),14.98%
COc1ccc(C2SCC(=O)Nc3ccsc32)cc1OC (configuration not stated),9.61%
COc1cccc(COCC(=O)N2CCCC(N3CCCC3)CC2)c1 (configuration not stated),34.69%
CSCC(=O)N[C@H]1CC[C@H](Nc2nccc(-c3cccnc3)n2)C1,7.759%
COc1ccsc1C(=O)Nc1cc(Br)c(=O)n(C)c1,5.797%
CCn1cc(NC(=O)NCC(C)N(C)C)cn1 (configuration not stated),13.24%
NC(=O)C1CCN(C(=O)c2cccn2Cc2cccs2)CC1,21.02%
O=C(C1CC(=O)N(c2n[nH]c3cc(Br)ccc23)C1)N1CCSCC1 (configuration not stated),18.06%
O=C(NCc1ccco1)c1cccc(CN2CCCC2CO)c1 (configuration not stated),22.07%
Cc1ccc(C(=O)N2C[C@@H]3COC[C@]3(COc3cccnc3)C2)cn1,9.764%
Cc1nn(C)c(C)c1C1CCCN1Cc1cn2ccsc2n1 (configuration not stated),13.9%
Cc1nc(CN2CC[C@H]3C[C@H](c4ccncn4)O[C@@H]3C2)cs1,13.01%
O=C(Nc1ccccc1OCCc1ccccn1)NC1CCOCC1,8.521%
Cc1cc(C2CCCN(CC(=O)N3CCCc4ccccc43)C2)n[nH]1 (configuration not stated),13.69%
N#CCCCS(=O)(=O)N1CCC(CSc2ccccc2)C1 (configuration not stated),17.38%
O=C(NCc1nnc2n1CCC2)c1cccc(Br)c1,12.61%
CCCn1cnnc1CNC(=O)C1COc2cc(OC)ccc2C1 (configuration not stated),12.32%
CCOc1ccc(NC(=O)NCc2csc(NC)n2)cc1C,18.1%
CC(C)CCN(C(=O)c1cccc(NC(N)=O)c1)C1CC1,7.419%
CCOc1ccc(NC(=O)Nc2cnc(N3CCOCC3)nc2)cc1,9.317%
CN(CCc1nccs1)C(=O)CC1(O)CCCCC1,4.7%
O=S(=O)(c1ccccc1)N1CCC2(CCCN2CC2CCCC2)C1 (configuration not stated),21.89%
CCNc1cc2c(nn1)CCN(C(=O)c1ccc(-n3cccn3)nc1)C2,18.58%
CCOC(=O)CNc1nc(COC)nc2c1cnn2C,9.028%
Cc1cc(F)ccc1S(=O)(=O)N(C)CC(N)=O,9.22%
c1cnnc(N2CCCC2CNCc2nc(-c3cccs3)no2)c1 (configuration not stated),18.7%
Cc1nccc(C(=O)NC(COCC(C)C)c2ccco2)n1 (configuration not stated),5.828%
Cc1c(Br)c(C(=O)NC(C)c2ccccc2)nn1C (configuration not stated),-8.393%
Cc1cc(NCC2(O)CCOCC2)nc2ccccc12,7.796%
Cn1ccc(C(=O)N2CCOC(c3ccccn3)C2)cc1=O (configuration not stated),8.36%
CCN(CC)S(=O)(=O)NC1CCCc2nc(-c3ccccc3)ncc21 (configuration not stated),10.47%
CN(CCO)Cc1nnc(C2CCN(CC(C)(C)C)CC2)n1C,13.97%
COCC1CN(Cc2cc(C)on2)Cc2cn(C)nc21 (configuration not stated),18.83%
Cc1csc(N2CCCN(C(=O)c3ccsc3)CC2)n1,7.143%
Cc1nc(O)cc(C2CCN(C(=O)c3ccsc3)CC2)n1,17.13%
COCc1nc(NC(C)Cc2cc(C)n[nH]2)c2cnn(C)c2n1 (configuration not stated),13.14%
Cc1cccc(C)c1OCCNC(=O)CNC(=O)C1CCCC1,9.441%
CCn1cc(CN2CCCN(C(=O)c3ccoc3C)CC2)cn1,18.78%
Cc1nc(-c2ccncc2)ncc1C(C)NC(=O)Cn1ccccc1=O (configuration not stated),0%
Cc1nnc(C2CCN(c3ccc(F)cc3)CC2)o1,14.89%
O=C(CN1CSCC1=O)NCC1CCN(c2ccccc2)C1 (configuration not stated),7.532%
Cn1ccnc1C(=O)N[C@@H]1CN(Cc2cccs2)[C@@H]2CCCO[C@@H]21,8.889%
Cc1cc(CCC2CN(Cc3ccccc3C(=O)O)CCO2)ncn1 (configuration not stated),18.65%
CC[C@H]1CN2CC[C@H]1C[C@@H]2CNCc1ccc(OC)cc1,6.593%